Results from the supplement of paper PMC11732987, “Enantioselective OTUD7B fragment discovery through chemoproteomics screening and high-throughput optimisation” (Communications Chemistry, 2025).
This is one part of the list. The data scatter; read single values as rough.

Protein sequences, listed by entry. Tags and fused reporters are not part of them. Lines headed by an entry give the natural chain unless they say otherwise; changes in a name come on top. Residues count along the entry.
UniProt Q96G28, 132-155: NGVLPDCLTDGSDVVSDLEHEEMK
UniProt Q86WR0: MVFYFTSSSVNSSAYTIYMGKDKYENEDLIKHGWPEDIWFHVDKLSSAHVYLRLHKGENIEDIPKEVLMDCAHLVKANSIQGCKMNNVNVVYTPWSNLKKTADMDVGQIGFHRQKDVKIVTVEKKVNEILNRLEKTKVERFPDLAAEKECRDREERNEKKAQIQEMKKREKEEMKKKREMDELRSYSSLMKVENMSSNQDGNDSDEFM
UniProt Q9Y4F5, 130-150: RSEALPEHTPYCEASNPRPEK
UniProt O75794: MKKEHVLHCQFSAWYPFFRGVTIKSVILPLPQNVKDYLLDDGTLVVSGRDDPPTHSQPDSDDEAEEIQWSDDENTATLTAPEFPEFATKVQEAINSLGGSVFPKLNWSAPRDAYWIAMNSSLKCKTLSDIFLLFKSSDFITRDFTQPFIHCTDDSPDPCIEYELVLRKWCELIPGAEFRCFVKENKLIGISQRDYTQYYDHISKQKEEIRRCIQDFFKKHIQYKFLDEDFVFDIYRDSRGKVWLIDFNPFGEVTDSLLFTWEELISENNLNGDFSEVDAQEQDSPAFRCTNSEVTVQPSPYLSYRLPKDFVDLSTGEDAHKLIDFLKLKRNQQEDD
UniProt Q9C0D2, 2288-2308: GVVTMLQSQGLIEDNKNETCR
UniProt Q9BUN5: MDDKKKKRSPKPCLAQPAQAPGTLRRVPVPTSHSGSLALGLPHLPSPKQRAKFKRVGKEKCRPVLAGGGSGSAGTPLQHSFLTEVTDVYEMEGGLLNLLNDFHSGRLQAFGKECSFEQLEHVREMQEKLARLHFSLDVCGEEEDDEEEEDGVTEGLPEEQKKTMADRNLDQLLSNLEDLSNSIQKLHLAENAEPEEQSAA
UniProt A6NKD9: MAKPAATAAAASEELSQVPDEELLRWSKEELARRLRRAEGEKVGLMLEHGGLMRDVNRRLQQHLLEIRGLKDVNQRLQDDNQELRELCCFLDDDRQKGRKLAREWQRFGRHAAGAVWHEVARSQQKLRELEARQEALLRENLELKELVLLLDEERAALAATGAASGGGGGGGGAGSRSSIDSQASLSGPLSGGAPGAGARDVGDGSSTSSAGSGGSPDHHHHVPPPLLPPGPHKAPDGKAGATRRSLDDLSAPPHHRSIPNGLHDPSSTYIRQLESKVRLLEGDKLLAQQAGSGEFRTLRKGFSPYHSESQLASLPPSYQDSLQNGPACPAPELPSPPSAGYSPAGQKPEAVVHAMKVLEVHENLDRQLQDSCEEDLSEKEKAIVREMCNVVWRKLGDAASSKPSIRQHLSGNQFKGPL
UniProt P49336: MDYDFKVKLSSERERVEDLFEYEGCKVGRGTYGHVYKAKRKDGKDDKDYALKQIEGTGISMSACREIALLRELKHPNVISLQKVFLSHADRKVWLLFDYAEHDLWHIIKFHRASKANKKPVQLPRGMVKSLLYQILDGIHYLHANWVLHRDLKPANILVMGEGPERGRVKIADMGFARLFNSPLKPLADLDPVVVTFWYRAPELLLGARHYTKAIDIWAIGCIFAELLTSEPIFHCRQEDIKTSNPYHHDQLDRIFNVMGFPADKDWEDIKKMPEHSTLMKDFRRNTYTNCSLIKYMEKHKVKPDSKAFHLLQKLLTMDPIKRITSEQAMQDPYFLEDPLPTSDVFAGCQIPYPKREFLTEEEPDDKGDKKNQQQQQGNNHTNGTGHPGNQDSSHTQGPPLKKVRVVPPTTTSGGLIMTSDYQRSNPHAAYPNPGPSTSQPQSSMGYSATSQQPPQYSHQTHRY
UniProt Q5VT06: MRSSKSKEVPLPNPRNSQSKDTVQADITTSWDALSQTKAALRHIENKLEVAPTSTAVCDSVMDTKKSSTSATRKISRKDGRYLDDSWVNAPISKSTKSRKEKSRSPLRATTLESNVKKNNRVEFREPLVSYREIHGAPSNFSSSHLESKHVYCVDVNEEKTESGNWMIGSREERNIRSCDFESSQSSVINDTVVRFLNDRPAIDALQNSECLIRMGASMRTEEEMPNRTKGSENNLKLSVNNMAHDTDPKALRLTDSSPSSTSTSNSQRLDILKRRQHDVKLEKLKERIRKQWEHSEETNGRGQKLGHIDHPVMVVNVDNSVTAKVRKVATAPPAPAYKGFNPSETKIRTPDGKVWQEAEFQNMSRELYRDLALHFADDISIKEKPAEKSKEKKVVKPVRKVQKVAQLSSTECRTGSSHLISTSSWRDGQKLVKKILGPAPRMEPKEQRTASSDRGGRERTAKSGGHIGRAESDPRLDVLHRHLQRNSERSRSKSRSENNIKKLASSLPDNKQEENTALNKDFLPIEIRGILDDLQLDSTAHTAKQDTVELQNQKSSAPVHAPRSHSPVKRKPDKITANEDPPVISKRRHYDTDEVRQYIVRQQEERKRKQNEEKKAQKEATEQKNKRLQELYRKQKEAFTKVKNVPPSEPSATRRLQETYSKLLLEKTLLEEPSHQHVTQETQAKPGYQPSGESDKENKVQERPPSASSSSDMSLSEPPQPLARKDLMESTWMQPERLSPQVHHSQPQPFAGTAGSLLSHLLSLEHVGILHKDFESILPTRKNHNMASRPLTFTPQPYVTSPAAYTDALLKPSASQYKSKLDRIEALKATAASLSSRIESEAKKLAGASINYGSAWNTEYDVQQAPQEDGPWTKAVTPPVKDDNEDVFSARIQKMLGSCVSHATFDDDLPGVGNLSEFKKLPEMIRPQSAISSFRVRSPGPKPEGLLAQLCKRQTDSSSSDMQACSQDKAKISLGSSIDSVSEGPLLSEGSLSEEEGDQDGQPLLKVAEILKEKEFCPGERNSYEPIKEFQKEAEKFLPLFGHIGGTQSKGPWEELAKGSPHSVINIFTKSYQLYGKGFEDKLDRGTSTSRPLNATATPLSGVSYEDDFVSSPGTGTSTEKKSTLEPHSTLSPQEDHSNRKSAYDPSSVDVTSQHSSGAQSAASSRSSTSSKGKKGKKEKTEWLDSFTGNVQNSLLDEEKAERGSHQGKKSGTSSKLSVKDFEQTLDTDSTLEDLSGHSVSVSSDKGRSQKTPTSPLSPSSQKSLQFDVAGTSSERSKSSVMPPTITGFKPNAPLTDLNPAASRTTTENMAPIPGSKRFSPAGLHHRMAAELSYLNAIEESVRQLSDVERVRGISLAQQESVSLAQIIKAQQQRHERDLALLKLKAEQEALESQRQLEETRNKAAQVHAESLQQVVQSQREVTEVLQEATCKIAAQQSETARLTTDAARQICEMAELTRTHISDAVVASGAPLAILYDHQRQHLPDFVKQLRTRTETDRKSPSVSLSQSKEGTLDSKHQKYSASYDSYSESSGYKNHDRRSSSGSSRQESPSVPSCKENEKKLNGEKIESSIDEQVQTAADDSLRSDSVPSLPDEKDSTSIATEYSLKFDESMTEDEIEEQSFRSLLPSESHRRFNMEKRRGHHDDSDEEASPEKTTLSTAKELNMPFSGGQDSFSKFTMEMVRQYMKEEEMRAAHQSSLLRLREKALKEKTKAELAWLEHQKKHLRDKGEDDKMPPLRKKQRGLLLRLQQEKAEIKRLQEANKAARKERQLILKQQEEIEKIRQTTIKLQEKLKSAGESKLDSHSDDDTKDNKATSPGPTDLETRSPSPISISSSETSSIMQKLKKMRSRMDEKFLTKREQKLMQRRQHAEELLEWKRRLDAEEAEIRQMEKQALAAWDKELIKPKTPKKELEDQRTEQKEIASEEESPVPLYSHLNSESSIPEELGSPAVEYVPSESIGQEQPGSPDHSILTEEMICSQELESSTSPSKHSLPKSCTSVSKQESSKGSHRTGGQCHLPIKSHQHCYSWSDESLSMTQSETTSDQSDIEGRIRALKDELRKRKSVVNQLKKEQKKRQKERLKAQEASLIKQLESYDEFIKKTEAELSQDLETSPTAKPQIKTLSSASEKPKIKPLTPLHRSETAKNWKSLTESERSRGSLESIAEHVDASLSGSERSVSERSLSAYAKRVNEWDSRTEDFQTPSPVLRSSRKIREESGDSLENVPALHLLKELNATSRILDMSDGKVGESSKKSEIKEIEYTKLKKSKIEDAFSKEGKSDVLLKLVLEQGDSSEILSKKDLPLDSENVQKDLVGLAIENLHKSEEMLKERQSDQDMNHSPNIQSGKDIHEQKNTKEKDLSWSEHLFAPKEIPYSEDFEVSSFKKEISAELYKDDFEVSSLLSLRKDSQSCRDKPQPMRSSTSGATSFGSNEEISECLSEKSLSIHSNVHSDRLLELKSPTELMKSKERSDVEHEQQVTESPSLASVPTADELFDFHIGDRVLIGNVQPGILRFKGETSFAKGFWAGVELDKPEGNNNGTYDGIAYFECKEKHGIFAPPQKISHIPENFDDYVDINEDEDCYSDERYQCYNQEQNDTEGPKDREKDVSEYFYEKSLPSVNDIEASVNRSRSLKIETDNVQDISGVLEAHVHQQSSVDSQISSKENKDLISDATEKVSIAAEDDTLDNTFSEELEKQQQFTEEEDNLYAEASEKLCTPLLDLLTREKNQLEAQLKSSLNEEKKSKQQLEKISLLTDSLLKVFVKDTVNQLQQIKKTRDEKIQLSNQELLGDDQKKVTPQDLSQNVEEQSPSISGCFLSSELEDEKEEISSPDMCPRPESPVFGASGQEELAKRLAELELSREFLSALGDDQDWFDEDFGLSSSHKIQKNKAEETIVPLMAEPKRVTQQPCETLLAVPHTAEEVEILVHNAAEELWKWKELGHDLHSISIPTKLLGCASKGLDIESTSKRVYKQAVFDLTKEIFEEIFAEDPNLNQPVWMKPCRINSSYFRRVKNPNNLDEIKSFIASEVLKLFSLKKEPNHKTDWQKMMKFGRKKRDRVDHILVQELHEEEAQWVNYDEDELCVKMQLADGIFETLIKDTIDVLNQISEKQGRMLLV
UniProt Q8IW35: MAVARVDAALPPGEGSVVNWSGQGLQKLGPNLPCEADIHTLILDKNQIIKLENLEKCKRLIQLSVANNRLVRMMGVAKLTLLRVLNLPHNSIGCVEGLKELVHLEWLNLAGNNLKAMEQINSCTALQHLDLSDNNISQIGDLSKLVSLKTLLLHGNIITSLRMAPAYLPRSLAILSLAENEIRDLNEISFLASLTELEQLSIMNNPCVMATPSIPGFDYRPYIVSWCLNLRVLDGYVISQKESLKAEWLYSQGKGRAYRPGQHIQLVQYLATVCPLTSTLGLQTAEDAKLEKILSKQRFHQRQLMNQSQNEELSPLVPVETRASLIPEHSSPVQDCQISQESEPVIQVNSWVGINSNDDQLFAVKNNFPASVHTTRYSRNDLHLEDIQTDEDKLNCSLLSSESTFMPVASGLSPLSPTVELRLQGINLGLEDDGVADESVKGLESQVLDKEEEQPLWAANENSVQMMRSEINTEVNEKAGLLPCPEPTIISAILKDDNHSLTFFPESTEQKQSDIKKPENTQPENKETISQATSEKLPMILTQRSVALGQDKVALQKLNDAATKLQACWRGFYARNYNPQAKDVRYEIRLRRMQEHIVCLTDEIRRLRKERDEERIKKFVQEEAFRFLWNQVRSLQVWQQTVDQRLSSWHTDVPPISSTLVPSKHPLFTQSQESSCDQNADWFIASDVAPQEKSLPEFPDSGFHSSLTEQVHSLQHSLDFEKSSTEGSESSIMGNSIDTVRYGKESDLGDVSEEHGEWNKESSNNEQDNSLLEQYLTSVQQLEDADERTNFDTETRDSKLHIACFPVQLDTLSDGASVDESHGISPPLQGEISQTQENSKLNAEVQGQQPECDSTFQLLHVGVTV
UniProt Q9P031, 110-152: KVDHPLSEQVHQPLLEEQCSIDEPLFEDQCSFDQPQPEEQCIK
UniProt Q96JM3: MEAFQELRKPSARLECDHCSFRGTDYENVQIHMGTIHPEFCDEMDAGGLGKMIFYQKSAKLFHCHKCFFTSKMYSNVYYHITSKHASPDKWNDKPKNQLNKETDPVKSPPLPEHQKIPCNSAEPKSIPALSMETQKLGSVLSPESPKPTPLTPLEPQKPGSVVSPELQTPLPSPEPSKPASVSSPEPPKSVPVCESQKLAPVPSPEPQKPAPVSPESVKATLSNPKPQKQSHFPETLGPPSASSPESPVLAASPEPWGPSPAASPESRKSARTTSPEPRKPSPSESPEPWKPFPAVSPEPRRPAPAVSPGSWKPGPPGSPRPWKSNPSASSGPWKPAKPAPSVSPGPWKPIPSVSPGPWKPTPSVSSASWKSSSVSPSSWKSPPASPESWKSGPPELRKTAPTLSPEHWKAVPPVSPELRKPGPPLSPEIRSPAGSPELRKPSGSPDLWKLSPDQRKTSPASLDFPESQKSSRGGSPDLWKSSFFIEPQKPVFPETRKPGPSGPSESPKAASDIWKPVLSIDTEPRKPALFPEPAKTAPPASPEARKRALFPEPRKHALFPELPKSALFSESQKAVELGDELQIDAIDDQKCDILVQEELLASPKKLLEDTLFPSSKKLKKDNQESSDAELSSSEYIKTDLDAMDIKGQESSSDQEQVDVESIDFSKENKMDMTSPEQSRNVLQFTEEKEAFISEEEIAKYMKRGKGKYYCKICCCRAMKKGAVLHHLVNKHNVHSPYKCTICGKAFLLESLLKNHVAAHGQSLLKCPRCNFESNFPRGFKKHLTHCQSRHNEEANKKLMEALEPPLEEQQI

Experiments:
[1] = compound: ClCC(=O)N[C@@H]1CCCc2ccccc12; assay: log2 mean competition ratio of IA-DTB cysteine labelling (DMSO/compound) (log2 ratio); higher = stronger cysteine engagement by compound; conditions: treatment time: 4 h, cell line lysate: HEK293T
Procedure: (§1)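 IA-DTB competitive cysteine chemoproteomics in HEK293T RIPA lysate. Lysates were treated with compound 29 or 30 at 50 or 200 µM for 4 h, then IA-DTB (500 µM, 1 h), trypsin-digested, NeutrAvidin-enriched and analysed by diaPASEF. Competition ratio = intensity DMSO / intensity compound (n=4 treated, n=64 DMSO); binding: mean log2 CR ≥ 1 and p ≤ 0.05 plus QC filters. Target is the cysteine site.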

[2] = compound: ClCC(=O)N[C@H]1CCCc2ccccc12; assay: as above; conditions: treatment time: 4 h, cell line lysate: HEK293T
Procedure: as §1

Target	log2 mean competition ratio ([1]; 50 µM)	log2 mean competition ratio ([1]; 200 µM)	log2 mean competition ratio ([2]; 50 µM)	log2 mean competition ratio ([2]; 200 µM)
CDK17 C304 (UniProt Q00537)	0.144	-0.178	0.0156	0.0487
CENPF C373 (UniProt P49454)	-0.0577	0.0149	0.00897	0.0656
CFAP36 C138 (UniProt Q96G28)	-0.00968	0.116	-0.565	-0.0137
CEBPZ C374 (UniProt Q03701)	-0.17	0.2	-0.879	-0.226
CCDC25 C150 (UniProt Q86WR0)	-0.126	0.182	-0.141	0.331
CEP170B C141 (UniProt Q9Y4F5)	-0.0947	-0.0449	0.00575	-0.425
CDC123 C212 (UniProt O75794)	0.0462	-0.228	-0.282	-0.282
CHD1L C123 (UniProt Q86WJ1)	0.403	0.41	0.0882	0.387
CCP110 C462 (UniProt O43303)	0.0921	-0.216	0.365	-0.318
CDK5RAP1 C183 (UniProt Q96SZ6)	0.4	0.18	-0.034	0.149
CEP295 C2307 (UniProt Q9C0D2)	0.139	0.283	0.858	0.168
CCDC28B C114 (UniProt Q9BUN5)	0.259	0.243	-0.425	0.112
CDKN2AIP C516 (UniProt Q9NXV6)	-0.0149	-0.349	0.637	0.0336
CENPE C2116 (UniProt Q02224)	0.264	0.332	-0.333	0.0195
CEP57 C252 (UniProt Q86XR8)	-0.097	-0.166	0.109	-0.0294
CCDC85C C389 (UniProt A6NKD9)	0.0901	0.43		0.31
CDK8 C25 (UniProt P49336)	-0.252	0.127	-0.217	0.161
CHAF1A C207 (UniProt Q13111)	0.00959	0.312	-0.0878	0.295
CEP350 C1999 (UniProt Q5VT06)	0.119	-0.152	0.254	0.0401
CCDC88C C1520 (UniProt Q9P219)	0.099	-0.361	-0.013	0.103
CCDC117 C81 (UniProt Q8IWD4)	0.0624	0.129	0.168	0.141
CEP97 C94 (UniProt Q8IW35)	0.18	0.378	-0.122	0.0285

Target	log2 mean competition ratio ([1]; 50 µM)	log2 mean competition ratio ([1]; 200 µM)	log2 mean competition ratio ([2]; 50 µM)	log2 mean competition ratio ([2]; 200 µM)
CCDC59_(C128,C128,C139,C139,C150,C150) (UniProt Q9P031)	-0.0677	0.0174		-0.191
CEP164 C810 (UniProt Q9UPV0)	0.0128	-0.228	-0.395	0.00626
CEP350 C966 (UniProt Q5VT06)	-0.191	1.35	-0.439	
CDC25C C330 (UniProt P30307)	-0.281	-0.439		0.0852
CHAMP1 C194 (UniProt Q96JM3)	-0.0805	-0.0857	0.0598	-0.0441
CEP152 C101 (UniProt O94986)	0.0133	0.0571		0.0495
CDC42 C157	-0.177	0.197	-0.729	0.158
CDK14 C100	-0.0583	0.158	-0.544	0.344
CENPM C98 (UniProt Q9NSP4)	-0.119	-0.347		0.0114
CDK12 C862 (UniProt Q9NYV4)	0.486	0.157	0.448	0.00806
CCDC91 C247 (UniProt Q7Z6B0)	-0.134	0.191	-0.511	-0.0506
CEP192 C939 (UniProt Q8TEP8)	-0.0499	0.084	0.0774	0.00583
CENPP C22 (UniProt Q6IPU0)	-0.252	-0.108	-0.085	-0.0953
CEP350 C413 (UniProt Q5VT06)	-0.166	0.204	0.0602	0.129
CDC16 C245 (UniProt Q13042)	0.173	-0.0847	-0.335	-0.252
CDCA2 C315 (UniProt Q69YH5)	-0.125	0.185	-0.0373	0.201
CCT5 C181 (UniProt P48643)	0.174	-0.426	0.19	-0.378
CCT7 C345 (UniProt Q99832)	-0.129	-0.0101	0.492	-0.0707
CEP152 C653 (UniProt O94986)	-0.11	-0.0477	-0.154	-0.157
CDC20 C472 (UniProt Q12834)	-0.153	0.196	-0.295	0.198
CCT5 C493 (UniProt P48643)	0.218	-0.0168	0.279	-0.104

Single entries from the list.
CDK8 C25 (UniProt P49336) | log2 mean competition ratio ([2]; 50 µM): -0.217
CEP350 C1999 (UniProt Q5VT06) | log2 mean competition ratio ([2]; 200 µM): 0.0401
CFAP36 C138 (UniProt Q96G28) | log2 mean competition ratio ([1]; 200 µM): 0.116
